In PMC8626775, “Anti-schistosomal activities of quinoxaline-containing compounds: From hit identification to lead optimisation” (European Journal of Medicinal Chemistry, 2021):

System: HepG2 cells
Assay: HepG2 MTT cytotoxicity assay
Details: HepG2 CC50 versus schistosomula EC50
Procedure: Initially the cells were handled under sterile conditions and grown at 37 °C in a humidified atmosphere containing 5% CO2. Cytotoxicity was evaluated by way of a 3-(4, 5- dimethylthiazol-2-yl)-2,5-diphenyl tetrazolium bromide (MTT) assay as previously described. The cells were counted in a dual chamber counting slide using the BIORAD TC-10 Automated cell counter, seeded in a 96-well plate (Fisher Scientific, Loughborough, UK) at a density of 2 × 10^4 cells/well and incubated in an atmosphere of 5% CO2 at 37 °C. […] The absorbance readings (at 570 nm) of the soluble formazan crystals were recorded using PolarStar Omega plate reader (BMG-Labtech). […] The latter was used to calculate the selectivity index (SI) of the compounds presented herein.

CC(=O)OC[C@H]1O[C@@H]([S-])[C@H](OC(C)=O)[C@@H](OC(C)=O)[C@@H]1OC(C)=O.CCP(CC)CC.[Au+] [AUR, Auranofin, reference compound]
Selectivity Index (SI) Somula: 7.17
